Test: peptide made by a vendor (Fmoc solid-phase peptide synthesis; C-terminal side-chain protected amino acid-resin; HATU/DIEA)
Settings: whole synthesis

| Substance | purity (crude or final not stated) [%] |
| --- | --- |
| c(Mpa-Pro-Pro-Tyr-Leu-Pro-c[Lys-Tyr-Leu-Cys)-Asp]-Leu-Ile-NH2 | 95.9 |
| Ac-c[Cys^1-Pro^2-Pro^3-Tyr^4-Leu^5-Pro^6-c(Lys^7-Tyr^8-Leu^9-Cys^10]-Asp^11)-Leu^12-Ile^13-NH2 (CPPYLPKYLCDLI; N-acetyl, C-amide, bicyclic disulfide and Lys-Asp lactam; MOD_RES 1 …ON; DISULFID 1..10 disulfide bond; CROSSLNK 7..11 Cyclization by amide linkage; MOD_RES 13 AMIDATION) | 100.0 |

— patent US20250186540A1 (ICHIMARU PHARCOS CO., LTD., priority 2022, published 2025)
